# Test results: the supplement of paper PMC9015667
# Counter-ions that a name gives are not always drawn. Some of the results follow. Single values are uncertain, as repeats are few or missing.
# Legend:
# Test in all cases: reduction in cell viability relative to untreated/vehicle; higher = more growth inhibition
# Settings in all cases: 200 nM; 72 h
# M229P = test system: M229P (parental melanoma line)
# M229R = test system: M229R (matched melanoma line resistant to BRAF inhibitors)
# M238P = test system: M238P (parental melanoma line)
# M238R = test system: M238R (matched melanoma line resistant to BRAF inhibitors)
# M249P = test system: M249P (parental melanoma line)
# M249R = test system: M249R (matched melanoma line resistant to BRAF inhibitors)
# UACC62P = test system: UACC62P (parental melanoma line)
# UACC62R = test system: UACC62R (matched melanoma line resistant to BRAF inhibitors)
SMILES,reduction in cell viability (M229P) [%],reduction in cell viability (M229R) [%],reduction in cell viability (M238P) [%],reduction in cell viability (M238R) [%],reduction in cell viability (M249P) [%],reduction in cell viability (M249R) [%],reduction in cell viability (UACC62P) [%],reduction in cell viability (UACC62R) [%]
C[C@@H]1CC[C@@]2(OC1)O[C@H]1C[C@H]3[C@@H]4CC=C5C[C@@H](O)CC[C@]5(C)[C@H]4CC[C@]3(C)[C@H]1[C@@H]2C [Diosgenin],< 0,< 0,< 0,< 0,< 0,< 0,< 0,< 0
O=C1C[C@@H](c2ccc(O)cc2)Oc2cc(O)cc(O)c21 [Naringenin],< 0,< 0,< 0,< 0,< 0,10.7,< 0,< 0
CN[C@@H]1[C@H](O)[C@H](NC)[C@H]2O[C@@]3(O)C(=O)C[C@@H](C)O[C@H]3O[C@@H]2[C@H]1O [Spectinomycin hydrochloride],< 0,< 0,< 0,< 0,< 0,< 0,< 0,< 0
Cn1cc(-c2ccncc2)c(-c2ccc(OCc3ccc4ccccc4n3)cc2)n1,< 0,< 0,< 0,< 0,< 0,< 0,< 0,< 0
CCN(c1ccccc1)c1cc(NC)[n+](C)c(C)n1,< 0,4.43,< 0,< 0,< 0,< 0,< 0,< 0
O=C1Nc2ccc(I)cc2/C1=C/c1cc(Br)c(O)c(Br)c1,< 0,< 0,< 0,< 0,< 0,< 0,< 0,< 0
Cc1cn(-c2cc(NC(=O)c3ccc(C)c(Nc4nccc(-c5cccnc5)n4)c3)cc(C(F)(F)F)c2)cn1 [Nilotinib (AMN-107)],< 0,< 0,< 0,< 0,< 0,< 0,< 0,< 0
O=C1NC(=O)/C(=C/c2ccc(-c3ccc(F)cc3O)o2)S1,< 0,< 0,< 0,< 0,< 0,< 0,1.45,< 0
O=C(CC12CC3CC(CC(C3)C1)C2)Nc1cccc2nc(NCCNCCO)ccc12,< 0,< 0,< 0,< 0,< 0,< 0,< 0,< 0
O=C(O)C(=O)Nc1cccc(-c2nnn[nH]2)c1 [Acitazanolast],< 0,< 0,< 0,< 0,< 0,< 0,4.55,< 0
"O=c1cc(-c2ccccc2)oc2cc(O)cc(O)c12 [5,7-Dihydroxyflavone]",< 0,< 0,< 0,< 0,< 0,< 0,8.6,< 0
CS(=O)(=O)c1cc(F)cc2c3c(n(Cc4ccc(Cl)cc4)c12)[C@@H](CC(=O)O)CC3 [Laropiprant],< 0,< 0,< 0,< 0,< 0,7.79,< 0,< 0
CC(=O)Nc1ccc(O)cc1 [Acetaminophen],< 0,< 0,< 0,< 0,< 0,< 0,8.56,< 0
O=P(O)(O)C(O)(Cc1cccnc1)P(=O)(O)O [Risedronate sodium],< 0,< 0,< 0,< 0,< 0,1.85,< 0,< 0
C=CC(=O)N1CCC[C@@H](n2nc(-c3ccc(Oc4ccccc4)cc3)c3c(N)ncnc32)C1,< 0,< 0,< 0,< 0,< 0,< 0,7.79,< 0
CC(C)(S)[C@@H](N)C(=O)O [Penicillamine],< 0,< 0,< 0,< 0,< 0,< 0,< 0,< 0
CC(C)(C)NC(=O)Nc1cccc(Nc2ncc(F)c(NC(C)(C)CO)n2)c1 [Bayer-18],3.26,< 0,< 0,< 0,< 0,< 0,< 0,< 0
CC[C@]12C=CCN3CC[C@@]4(c5cc([C@@]6(C(=O)OC)C[C@@H]7C[C@@H](C(C)(F)F)CN(Cc8c6[nH]c6ccccc86)C7)c(OC)cc5N(C)[C@H]4[C@@](O)(C(=O)OC)[C@@H]1OC(C)=O)[C@@H]32 [Vinflunine],26.9,45.7,59.3,70.1,29.7,41.3,44.6,74.5
Nc1nccc(-c2ccc3noc(-c4ccc(Cl)cc4)c3c2)n1 [Pim 1 inhibitor 2],< 0,< 0,< 0,< 0,< 0,< 0,< 0,< 0
O=C(c1ccccc1)c1ccc2n1CCC2C(=O)O (stereo unspecified) [Ketorolac],< 0,< 0,< 0,< 0,< 0,< 0,< 0,< 0
CC[C@@H]([C@H](C)O)n1ncn(-c2ccc(N3CCN(c4ccc(OC[C@@H]5CO[C@@](Cn6cncn6)(c6ccc(F)cc6F)C5)cc4)CC3)cc2)c1=O [Posaconazole],< 0,< 0,8.4,11,12.3,< 0,0.25,14.6

SMILES,reduction in cell viability (M229P) [%],reduction in cell viability (M229R) [%],reduction in cell viability (M238P) [%],reduction in cell viability (M238R) [%],reduction in cell viability (M249P) [%],reduction in cell viability (M249R) [%],reduction in cell viability (UACC62P) [%],reduction in cell viability (UACC62R) [%]
COc1cc2nccc(Oc3ccc(NC(=O)NC4CC4)c(Cl)c3)c2cc1C(N)=O [Lenvatinib (E7080)],< 0,< 0,< 0,< 0,< 0,< 0,< 0,< 0
N[C@@H](C(=O)N[C@@H]1C(=O)N2C(C(=O)O)=C(Cl)CS[C@H]12)c1ccccc1 [Cefaclor],< 0,< 0,< 0,< 0,< 0,< 0,< 0,< 0
CC(/C=C1\SC(=S)N(CC(=O)O)C1=O)=C\c1ccccc1 [Epalrestat],< 0,< 0,< 0,< 0,< 0,< 0,< 0,< 0
O=C(O)[C@H](CC(=O)N1C[C@H]2CCCC[C@H]2C1)Cc1ccccc1 [Mitiglinide Calcium Dihydrate],< 0,< 0,< 0,< 0,< 0,< 0,4,< 0
CC(C)CN(C[C@@H](O)[C@H](Cc1ccccc1)NC(=O)O[C@H]1CO[C@H]2OCC[C@H]21)S(=O)(=O)c1ccc(N)cc1 [Darunavir],< 0,< 0,< 0,< 0,< 0,< 0,< 0,< 0
CC(=O)SC[C@@H](C)C(=O)N1CCC[C@H]1C(=O)N[C@@H](Cc1ccccc1)C(=O)O [Alacepril],< 0,< 0,< 0,< 0,< 0,< 0,< 0,< 0
CN1CCN(CCCN2c3ccccc3Sc3ccc(C(F)(F)F)cc32)CC1 [Trifluoperazine hydrochloride],< 0,< 0,< 0,< 0,< 0,< 0,< 0,< 0
CC(C)c1noc(N2CCC(COc3ccc(-c4ccc(S(C)(=O)=O)cc4)nc3)CC2)n1,< 0,< 0,< 0,< 0,< 0,< 0,< 0,< 0
O=C(O)c1cc(=O)c2c(OCC(O)COc3cccc4oc(C(=O)O)cc(=O)c34)cccc2o1 [Sodium cromoglycate],< 0,< 0,< 0,< 0,< 0,< 0,< 0,< 0
Cn1cc(CNCC2CCN(c3ncc(C(=O)NO)cn3)CC2)c2ccccc21 [Quisinostat hydrochloride],80.8,69.8,80,74.9,84.4,82.6,83.6,79
C[C@H]1[C@@H](O)O[C@@H]2O[C@@]3(C)CC[C@H]4[C@H](C)CC[C@@H]1[C@@]24OO3 [Artenimol],< 0,< 0,< 0,< 0,< 0,< 0,< 0,< 0
O=C(O)CC[C@H]1CC[C@@](c2cc(F)ccc2F)(S(=O)(=O)c2ccc(Cl)cc2)CC1,< 0,< 0,< 0,< 0,< 0,< 0,< 0,< 0
O=C(NC(Cc1cc(=O)[nH]c2ccccc12)C(=O)O)c1ccc(Cl)cc1 (stereo unspecified) [Rebamipide],< 0,< 0,< 0,< 0,< 0,< 0,2.14,< 0
CC1(C)S[C@@H]2[C@H](NC(=O)[C@H](N)c3ccc(O)cc3)C(=O)N2[C@H]1C(=O)O [Amoxicillin sodium],< 0,< 0,< 0,< 0,< 0,< 0,< 0,< 0
CNC(=O)c1c(-c2ccc(F)cc2)oc2cc(N(CCO)S(C)(=O)=O)c(C3CC3)cc12 [Nesbuvir],< 0,< 0,< 0,< 0,< 0,< 0,< 0,< 0
COc1ccc2c(c1)c(CC(=O)OCC(=O)O)c(C)n2C(=O)c1ccc(Cl)cc1 [Acemetacin],< 0,< 0,< 0,< 0,< 0,2.06,< 0,< 0
C[C@@H](O)[C@H]1C(=O)N2C(C(=O)OCOC(=O)C(C)(C)C)=C(SC3CN(C4=NCCS4)C3)[C@H](C)[C@H]12 [Tebipenem pivoxil],< 0,< 0,< 0,< 0,< 0,< 0,< 0,< 0
Cc1cc(-c2nnc3n2CCCCC3)c(C)n1-c1ccccc1,< 0,< 0,< 0,< 0,< 0,< 0,< 0,< 0
COc1cc2c(cc1OC)CN(CCc1ccc(NC(=O)c3cc(OC)c(OC)cc3NC(=O)c3cnc4ccccc4c3)cc1)CC2 [Tariquidar],< 0,< 0,< 0,< 0,< 0,< 0,< 0,< 0
O=C(O)Cc1cccc(OCCCN(Cc2cccc(C(F)(F)F)c2Cl)CC(c2ccccc2)c2ccccc2)c1,< 0,< 0,< 0,< 0,< 0,< 0,< 0,< 0
COc1c(C)c2c(c(O)c1C/C=C(\C)CCC(=O)O)C(=O)OC2 [Mycophenolic acid],< 0,< 0,< 0,< 0,< 0,< 0,< 0,< 0

# Only reduction in cell viability (UACC62R) [%] and reduction in cell viability (M249P) [%] (3 entries from above):
SMILES	reduction in cell viability (UACC62R) [%]	reduction in cell viability (M249P) [%]
Cc1cc(-c2nnc3n2CCCCC3)c(C)n1-c1ccccc1	< 0	< 0
COc1cc2c(cc1OC)CN(CCc1ccc(NC(=O)c3cc(OC)c(OC)cc3NC(=O)c3cnc4ccccc4c3)cc1)CC2 [Tariquidar]	< 0	< 0
O=C(O)Cc1cccc(OCCCN(Cc2cccc(C(F)(F)F)c2Cl)CC(c2ccccc2)c2ccccc2)c1	< 0	< 0
